PubChem BioAssay AID504786 – Drosophila RNAi Screening Center – 2011
Purpose: 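Fly genes required for HIF-dependent transcription when hypoxia is mimicked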 (primary screen). Cell system: Drosophila S2 cells with a stable HIF luciferase reporter. Knock-down reagent: long dsRNA against Drosophila genes, about 0.2 µg dsRNA per well of a 384-well plate. Time to read-out: three days of knock-down, then 20 h of DFO before reading. Conditions: desferrioxamine (DFO) at 100 µM, an iron chelator that mimics hypoxia, for 20 h. Detection: 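Firefly luciferase driven by the mouse ldh-a hypoxia-response element, measured after 20 h of 100 µM DFO; z-scores per plate, higher means more signal lost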. Scale: z-score: higher = stronger loss of HIF reporter signal.
The screen tested about 21,000 reagents; this is an unselected part of those with a known target gene and a result. 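Primary screen; positive scores mean lost reporter signal, so the sign may be inverted from the usual convention.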 A plus sign joins genes that one reagent is predicted to hit. No sequences are given here.

{"gene":"bgm (GeneID 44117)","dsRNA":"DRSC03495","z-score, replicate 1":0.7,"z-score, replicate 2":3.2}
{"gene":"Epp (GeneID 42840)","dsRNA":"DRSC14607","z-score, replicate 1":-0.2,"z-score, replicate 2":-0.3}
{"gene":"Sfp53D (GeneID 8673983)","dsRNA":"DRSC05625","z-score, replicate 1":0.1,"z-score, replicate 2":-0.2}
{"gene":"CG5776 (GeneID 34680)","dsRNA":"DRSC02891","z-score, replicate 1":-0.2,"z-score, replicate 2":-0.3}
{"gene":"Alp7 (GeneID 37538)","dsRNA":"DRSC04355","z-score, replicate 1":0.5,"z-score, replicate 2":1.1}
{"gene":"Rok (GeneID 43916)","dsRNA":"DRSC20277","z-score, replicate 1":-0.2,"z-score, replicate 2":-0.4}
{"gene":"Alg3 (GeneID 37754)","dsRNA":"DRSC04700","z-score, replicate 1":-0.3,"z-score, replicate 2":-0.1}
{"gene":"CG3788 (GeneID 37644)","dsRNA":"DRSC04418","z-score, replicate 1":-0.3,"z-score, replicate 2":-0.4}
{"gene":"tHMG2 (GeneID 42651)","dsRNA":"DRSC16182","z-score, replicate 1":0.4,"z-score, replicate 2":-0.4}
{"gene":"CG13046 (GeneID 39791)","dsRNA":"DRSC09927","z-score, replicate 1":-0.3,"z-score, replicate 2":0.1}
{"gene":"CG42566 (GeneID 8674120)","dsRNA":"DRSC03949","z-score, replicate 1":-0.5,"z-score, replicate 2":-0.2}
{"gene":"CG18636 (GeneID 2768923)","dsRNA":"DRSC02685","z-score, replicate 1":-0.2,"z-score, replicate 2":0}
{"gene":"NELF-B (GeneID 31681)","dsRNA":"DRSC17734","z-score, replicate 1":-0.6,"z-score, replicate 2":-1.3}
{"gene":"pirk (GeneID 37468)","dsRNA":"DRSC04269","z-score, replicate 1":-0.2,"z-score, replicate 2":-0.4}
{"gene":"CG13738 (GeneID 39541)","dsRNA":"DRSC10065","z-score, replicate 1":-0.6,"z-score, replicate 2":-0.6}
{"gene":"CG3216 (GeneID 37376)","dsRNA":"DRSC04347","z-score, replicate 1":0,"z-score, replicate 2":-0.1}
{"gene":"CG13575 (GeneID 37883)","dsRNA":"DRSC04211","z-score, replicate 1":0,"z-score, replicate 2":-0.1}
{"gene":"Sugb (GeneID 39314)","dsRNA":"DRSC10815","z-score, replicate 1":-0.1,"z-score, replicate 2":-0.4}
{"gene":"kuk (GeneID 42063)","dsRNA":"DRSC15730","z-score, replicate 1":-0.3,"z-score, replicate 2":-0.7}
{"gene":"CG13895 (GeneID 38087)","dsRNA":"DRSC08365","z-score, replicate 1":0.1,"z-score, replicate 2":0}
{"gene":"Herp (GeneID 34065)","dsRNA":"DRSC02394","z-score, replicate 1":-0.4,"z-score, replicate 2":-0.8}
{"gene":"bru1 (GeneID 34648)","dsRNA":"DRSC01234","z-score, replicate 2":7.3}
{"gene":"bru1 (GeneID 34648)","dsRNA":"DRSC01236","z-score, replicate 1":-0.7,"z-score, replicate 2":-0.6}
{"gene":"bru1 (GeneID 34648)","dsRNA":"DRSC01237","z-score, replicate 1":-0.4,"z-score, replicate 2":-0.7}
{"gene":"bru1 (GeneID 34648)","dsRNA":"DRSC01238","z-score, replicate 1":-0.2,"z-score, replicate 2":-0.3}
{"gene":"bru1 (GeneID 34648)","dsRNA":"DRSC03485","z-score, replicate 1":-0.4,"z-score, replicate 2":-0.5}
{"gene":"CG6142 (GeneID 43178)","dsRNA":"DRSC15976","z-score, replicate 1":-0.4,"z-score, replicate 2":-0.3}
{"gene":"AGO1 (GeneID 36544)","dsRNA":"DRSC05912","z-score, replicate 1":6.1,"z-score, replicate 2":2.6}
{"gene":"CG1236 (GeneID 40708)","dsRNA":"DRSC12203","z-score, replicate 1":-0.4,"z-score, replicate 2":-0.1}
{"gene":"CG14659 (GeneID 40604)","dsRNA":"DRSC12245","z-score, replicate 1":-0.2,"z-score, replicate 2":0}
{"gene":"CG14440 (GeneID 31610)","dsRNA":"DRSC17933","z-score, replicate 1":0.3,"z-score, replicate 2":0.1}
{"gene":"exex (GeneID 38884)","dsRNA":"DRSC10972","z-score, replicate 1":-0.2,"z-score, replicate 2":-0.2}
{"gene":"PCID2 (GeneID 39306)","dsRNA":"DRSC10822","z-score, replicate 1":-0.1,"z-score, replicate 2":0.7}
{"gene":"fd102C (GeneID 43843)","dsRNA":"DRSC17203","z-score, replicate 1":-0.4,"z-score, replicate 2":-0.3}
{"gene":"CG10909 (GeneID 41581)","dsRNA":"DRSC14282","z-score, replicate 1":-0.1,"z-score, replicate 2":0}
{"gene":"Acp65Aa (GeneID 38710)","dsRNA":"DRSC09663","z-score, replicate 1":-0.4,"z-score, replicate 2":-0.8}
{"gene":"TwdlZ (GeneID 318092)","dsRNA":"DRSC19154","z-score, replicate 1":-0.2,"z-score, replicate 2":-0.4}
{"gene":"CG33490 (GeneID 2768970)","dsRNA":"DRSC10587","z-score, replicate 1":-0.3,"z-score, replicate 2":-0.1}
{"gene":"Mlc1 (GeneID 43323)","dsRNA":"DRSC16740","z-score, replicate 1":-0.4,"z-score, replicate 2":-0.4}
{"gene":"CG6709 + Hez","dsRNA":"DRSC10165","z-score, replicate 1":-0.2,"z-score, replicate 2":-0.3}
{"gene":"CG6709 + Hez","dsRNA":"DRSC10698","z-score, replicate 1":-0.3,"z-score, replicate 2":-0.5}
